Reference: the supplement of paper PMC8728848
The list shows a part of the results.

Legend:
Assay in all cases: glycan array binding signal (z-score within array); higher = stronger binding
Conditions in all cases: glycan notation: IUPAC condensed, linker removed
[1] = target: GalNAc(b1-4)GlcNAc(b1-2)Man
Outline: (§1)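 Glycan array binding is given as a within-array Z-score, which can be read as non-binding when negative. The arrays, 3228 of them, came from the Consortium for Functional Glycomics database and were retained only where the protein sequence was available. Z-scores were averaged across arrays of the same protein sequence at different concentrations or buffers and across linkers.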

[2] = target: GalNAc(b1-4)GlcNAc(b1-2)Man(a1-3)[GalNAc(b1-4)GlcNAc(b1-2)Man(a1-6)]Man(b1-4)GlcNAc(b1-4)GlcNAc
Outline: as §1

[3] = target: GalNAc(b1-4)GlcNAc(b1-3)GalNAc(b1-4)GlcNAc
Outline: as §1

[4] = target: GalNAc(b1-4)GlcNAc6S
Outline: as §1

[5] = target: GalNAc(b1-6)GalNAc
Outline: as §1

[6] = target: GalNAc3S(b1-4)GlcNAc
Outline: as §1

[7] = target: GalNAc3S(b1-4)GlcNAc3S
Outline: as §1

[8] = target: GalNAc3S(b1-4)[Fuc(a1-3)]GlcNAc
Outline: as §1

[9] = target: GalNAc4S6S(b1-4)GlcNAc
Outline: as §1

[10] = target: GalNAc6S(b1-4)GlcNAc
Outline: as §1

[11] = target: Glc(a1-4)Glc
Outline: as §1

[12] = target: Glc(a1-4)Glc(a1-4)Glc(a1-4)Glc
Outline: as §1

[13] = target: Glc(a1-6)Glc(a1-6)Glc
Outline: as §1

[14] = target: Glc(a1-6)Glc(a1-6)Glc(a1-6)Glc
Outline: as §1

[15] = target: Glc(b1-4)Glc
Outline: as §1

[16] = target: Glc(b1-6)Glc
Outline: as §1

[17] = target: GlcA(b1-3)Gal
Outline: as §1

[18] = target: GlcA(b1-3)GlcNAc
Outline: as §1

[19] = target: GlcA(b1-6)Gal
Outline: as §1

[20] = target: GlcA3S(b1-3)Gal(b1-4)GlcNAc(b1-2)Man
Outline: as §1

[21] = target: GlcA3S(b1-3)Gal(b1-4)GlcNAc(b1-3)Gal(b1-4)Glc
Outline: as §1

[22] = target: GlcNAc(a1-3)Gal(b1-4)GlcNAc
Outline: as §1

[23] = target: GlcNAc(a1-4)Gal(b1-3)GlcNAc
Outline: as §1

[24] = target: GlcNAc(a1-4)Gal(b1-4)GalNAc
Outline: as §1

[25] = target: GlcNAc(a1-4)Gal(b1-4)GlcNAc
Outline: as §1

[26] = target: GlcNAc(a1-4)Gal(b1-4)GlcNAc(b1-3)Gal(b1-4)Glc
Outline: as §1

[27] = target: GlcNAc(a1-4)Gal(b1-4)GlcNAc(b1-3)Gal(b1-4)GlcNAc
Outline: as §1

[28] = target: GlcNAc(a1-4)Gal(b1-4)GlcNAc(b1-3)Gal(b1-4)GlcNAc(b1-3)Gal(b1-4)GlcNAc
Outline: as §1

[29] = target: GlcNAc(a1-4)Gal(b1-4)GlcNAc(b1-3)Gal(b1-4)[Fuc(a1-3)]GlcNAc(b1-3)Gal(b1-4)[Fuc(a1-3)]GlcNAc
Outline: as §1

[30] = target: GlcNAc(a1-6)Gal(b1-4)GlcNAc
Outline: as §1

[31] = target: GlcNAc(b1-2)Gal(b1-3)GalNAc
Outline: as §1

[32] = target: GlcNAc(b1-2)Man(a1-3)[GlcNAc(b1-2)Man(a1-6)]Man(b1-4)GlcNAc(b1-4)GlcNAc
Outline: as §1

[33] = target: GlcNAc(b1-2)Man(a1-3)[GlcNAc(b1-2)Man(a1-6)]Man(b1-4)GlcNAc(b1-4)[Fuc(a1-6)]GlcNAc
Outline: as §1

[34] = target: GlcNAc(b1-2)Man(a1-3)[GlcNAc(b1-4)][GlcNAc(b1-2)Man(a1-6)]Man(b1-4)GlcNAc(b1-4)GlcNAc
Outline: as §1

[35] = target: GlcNAc(b1-2)Man(a1-3)[GlcNAc(b1-4)][GlcNAc(b1-2)Man(a1-6)]Man(b1-4)GlcNAc(b1-4)[Fuc(a1-6)]GlcNAc
Outline: as §1

[36] = target: GlcNAc(b1-2)[GlcNAc(b1-4)]Man(a1-3)[GlcNAc(b1-2)Man(a1-6)]Man(b1-4)GlcNAc(b1-4)GlcNAc
Outline: as §1

[37] = target: GlcNAc(b1-2)[GlcNAc(b1-4)]Man(a1-3)[GlcNAc(b1-4)][GlcNAc(b1-2)Man(a1-6)]Man(b1-4)GlcNAc(b1-4)GlcNAc
Outline: as §1

[38] = target: GlcNAc(b1-2)[GlcNAc(b1-4)]Man(a1-3)[GlcNAc(b1-4)][GlcNAc(b1-2)[GlcNAc(b1-6)]Man(a1-6)]Man(b1-4)GlcNAc(b1-4)GlcNAc
Outline: as §1

[39] = target: GlcNAc(b1-2)[GlcNAc(b1-4)]Man(a1-3)[GlcNAc(b1-4)][GlcNAc(b1-2)[GlcNAc(b1-6)]Man(a1-6)]Man(b1-4)GlcNAc(b1-4)[Fuc(a1-6)]GlcNAc
Outline: as §1

[40] = target: GlcNAc(b1-2)[GlcNAc(b1-6)]Man(a1-6)[GlcNAc(b1-2)Man(a1-3)]Man(b1-4)GlcNAc(b1-4)GlcNAc
Outline: as §1

[41] = target: GlcNAc(b1-2)[GlcNAc(b1-6)]Man(a1-6)[GlcNAc(b1-2)Man(a1-3)]Man(b1-4)GlcNAc(b1-4)[Fuc(a1-6)]GlcNAc
Outline: as §1

[42] = target: GlcNAc(b1-2)[GlcNAc(b1-6)]Man(a1-6)[GlcNAc(b1-4)][GlcNAc(b1-2)Man(a1-3)]Man(b1-4)GlcNAc(b1-4)GlcNAc
Outline: as §1

[43] = target: GlcNAc(b1-3)Fuc
Outline: as §1

[44] = target: GlcNAc(b1-3)Gal
Outline: as §1

[45] = target: GlcNAc(b1-3)Gal(b1-3)GalNAc
Outline: as §1

B1: LlpB (Pseudomonas fluorescens) (protein)
chain: MGSSHHHHHHSSGLVPRGSHMASSGFRIILFNSANNGTAILPPRNCLVAGQYLESPSKRYKLILEADGNLRLYDNGVPIWVADSSVPYTYVDNRPNTNLVTCFYMQGSAFLVDRVGSRTWATIGDWIDGAADRAYLQVQDDGNVVVVDGVPRWARFGFTPAALPNRGVFYPDHGTGPLPSFPVWSWTF
- glycan array binding signal (z-score) [1]: 0.18
- glycan array binding signal (z-score) [2]: -0.04
- glycan array binding signal (z-score) [3]: 1.16
- glycan array binding signal (z-score) [4]: -0.975
- glycan array binding signal (z-score) [5]: 0.3
- glycan array binding signal (z-score) [6]: 0.402
- glycan array binding signal (z-score) [7]: -0.847
- glycan array binding signal (z-score) [8]: -0.592
- glycan array binding signal (z-score) [9]: 1.16
- glycan array binding signal (z-score) [10]: -0.369
- glycan array binding signal (z-score) [11]: -0.364
- glycan array binding signal (z-score) [12]: 0.312
- glycan array binding signal (z-score) [13]: -0.74
- glycan array binding signal (z-score) [14]: -0.961
- glycan array binding signal (z-score) [15]: -0.427
- glycan array binding signal (z-score) [16]: 1.14
- glycan array binding signal (z-score) [17]: 0.55
- glycan array binding signal (z-score) [18]: 0.105
- glycan array binding signal (z-score) [19]: 2.27
- glycan array binding signal (z-score) [20]: -1.09
- glycan array binding signal (z-score) [21]: -1.73
- glycan array binding signal (z-score) [22]: -0.472
- glycan array binding signal (z-score) [23]: -0.343
- glycan array binding signal (z-score) [24]: -0.568
- glycan array binding signal (z-score) [25]: 0.909
- glycan array binding signal (z-score) [26]: -1.5
- glycan array binding signal (z-score) [27]: 1.1
- glycan array binding signal (z-score) [28]: 0.637
- glycan array binding signal (z-score) [29]: 1.5
- glycan array binding signal (z-score) [30]: 0.156
- glycan array binding signal (z-score) [31]: -0.798
- glycan array binding signal (z-score) [32]: -0.099
- glycan array binding signal (z-score) [33]: -1.18
- glycan array binding signal (z-score) [34]: -0.122
- glycan array binding signal (z-score) [35]: 1.22
- glycan array binding signal (z-score) [36]: -0.436
- glycan array binding signal (z-score) [37]: -0.66
- glycan array binding signal (z-score) [38]: -0.546
- glycan array binding signal (z-score) [39]: -0.095
- glycan array binding signal (z-score) [40]: 0.893
- glycan array binding signal (z-score) [41]: -0.317
- glycan array binding signal (z-score) [42]: 0.999
- glycan array binding signal (z-score) [43]: 1.24
- glycan array binding signal (z-score) [44]: -1.01
- glycan array binding signal (z-score) [45]: 1.43
